# No constants are given. Whether binding was seen depends on the method and setting. For some assays here: Binding seen in cells or lysates may run through a third protein. Some entries that bind do so weakly or less than the wild type. For some assays here: Sequences can lack the tags named with a protein.
# T1: SEPT7 (endogenous, U2OS) (human (endogenous in U2OS)) (UniProt Q16181)
# T1 sequence: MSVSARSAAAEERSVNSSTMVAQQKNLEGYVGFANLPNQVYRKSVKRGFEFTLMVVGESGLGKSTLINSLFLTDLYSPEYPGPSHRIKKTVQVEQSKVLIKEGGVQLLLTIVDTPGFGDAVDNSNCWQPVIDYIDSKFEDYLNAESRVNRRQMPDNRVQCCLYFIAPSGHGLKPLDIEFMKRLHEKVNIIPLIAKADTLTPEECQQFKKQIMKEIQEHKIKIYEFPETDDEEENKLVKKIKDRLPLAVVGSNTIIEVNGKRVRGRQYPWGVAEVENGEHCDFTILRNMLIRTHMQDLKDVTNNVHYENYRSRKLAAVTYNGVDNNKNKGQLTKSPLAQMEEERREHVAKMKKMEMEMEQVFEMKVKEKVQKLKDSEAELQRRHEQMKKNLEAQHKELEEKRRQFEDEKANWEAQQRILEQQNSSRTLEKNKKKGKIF
# T2: msfGFP-SEPT7Gmut1 (SEPT7 W269A, H279D) (human) (UniProt Q16181)
# T2 sequence: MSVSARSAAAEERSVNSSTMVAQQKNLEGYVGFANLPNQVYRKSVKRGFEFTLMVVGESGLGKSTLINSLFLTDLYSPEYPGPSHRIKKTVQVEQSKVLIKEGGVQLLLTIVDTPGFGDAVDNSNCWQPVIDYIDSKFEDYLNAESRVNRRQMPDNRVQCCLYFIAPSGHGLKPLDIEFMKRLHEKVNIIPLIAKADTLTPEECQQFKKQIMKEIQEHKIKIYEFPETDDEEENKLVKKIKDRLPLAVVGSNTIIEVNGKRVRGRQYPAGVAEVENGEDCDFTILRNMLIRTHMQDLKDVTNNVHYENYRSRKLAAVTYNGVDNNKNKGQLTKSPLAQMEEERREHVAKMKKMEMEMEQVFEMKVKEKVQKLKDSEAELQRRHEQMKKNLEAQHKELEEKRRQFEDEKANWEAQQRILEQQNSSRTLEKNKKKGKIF
# T3: msfGFP-SEPT7Gmut2 (SEPT7 H279D) (human) (UniProt Q16181)
# T3 sequence: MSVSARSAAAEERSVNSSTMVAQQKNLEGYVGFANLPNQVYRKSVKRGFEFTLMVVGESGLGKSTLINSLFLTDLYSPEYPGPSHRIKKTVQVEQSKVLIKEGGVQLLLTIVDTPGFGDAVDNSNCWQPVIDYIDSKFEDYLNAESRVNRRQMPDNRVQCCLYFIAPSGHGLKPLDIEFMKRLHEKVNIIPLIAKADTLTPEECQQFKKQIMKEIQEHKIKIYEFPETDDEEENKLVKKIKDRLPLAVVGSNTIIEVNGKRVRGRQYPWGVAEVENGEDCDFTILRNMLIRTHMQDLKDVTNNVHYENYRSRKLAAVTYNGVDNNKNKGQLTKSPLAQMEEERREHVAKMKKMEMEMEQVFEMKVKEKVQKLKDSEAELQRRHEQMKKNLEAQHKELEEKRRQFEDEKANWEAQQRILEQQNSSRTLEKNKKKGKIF
# T4: recombinant human septin hexamers with wild-type SEPT2-msfGFP (SEPT2-SEPT6-SEPT7-SEPT7-SEPT6-SEPT2) (human) (UniProt Q15019)
# T4 sequence 1: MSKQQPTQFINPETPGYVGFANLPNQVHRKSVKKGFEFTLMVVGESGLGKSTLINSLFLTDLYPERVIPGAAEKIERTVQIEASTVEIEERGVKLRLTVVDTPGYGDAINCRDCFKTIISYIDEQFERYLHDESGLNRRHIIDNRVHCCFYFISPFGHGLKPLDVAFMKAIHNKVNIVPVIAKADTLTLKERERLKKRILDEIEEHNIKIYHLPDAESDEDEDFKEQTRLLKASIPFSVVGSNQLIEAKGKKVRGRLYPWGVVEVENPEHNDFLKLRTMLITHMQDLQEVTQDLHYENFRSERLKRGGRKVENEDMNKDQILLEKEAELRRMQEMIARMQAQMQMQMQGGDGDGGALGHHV
# T4 sequence 2: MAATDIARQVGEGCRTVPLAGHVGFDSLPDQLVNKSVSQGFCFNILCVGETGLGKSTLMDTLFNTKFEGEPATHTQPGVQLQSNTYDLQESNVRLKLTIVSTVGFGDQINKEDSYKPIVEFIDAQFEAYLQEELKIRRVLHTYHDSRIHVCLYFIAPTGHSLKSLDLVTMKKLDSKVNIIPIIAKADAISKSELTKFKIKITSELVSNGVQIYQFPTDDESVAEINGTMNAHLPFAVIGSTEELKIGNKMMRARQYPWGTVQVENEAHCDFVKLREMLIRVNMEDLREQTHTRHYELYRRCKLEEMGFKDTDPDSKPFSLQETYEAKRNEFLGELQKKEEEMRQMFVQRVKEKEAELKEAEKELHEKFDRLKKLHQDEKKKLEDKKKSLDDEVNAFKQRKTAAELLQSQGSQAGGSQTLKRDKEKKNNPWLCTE
# T4 sequence 3: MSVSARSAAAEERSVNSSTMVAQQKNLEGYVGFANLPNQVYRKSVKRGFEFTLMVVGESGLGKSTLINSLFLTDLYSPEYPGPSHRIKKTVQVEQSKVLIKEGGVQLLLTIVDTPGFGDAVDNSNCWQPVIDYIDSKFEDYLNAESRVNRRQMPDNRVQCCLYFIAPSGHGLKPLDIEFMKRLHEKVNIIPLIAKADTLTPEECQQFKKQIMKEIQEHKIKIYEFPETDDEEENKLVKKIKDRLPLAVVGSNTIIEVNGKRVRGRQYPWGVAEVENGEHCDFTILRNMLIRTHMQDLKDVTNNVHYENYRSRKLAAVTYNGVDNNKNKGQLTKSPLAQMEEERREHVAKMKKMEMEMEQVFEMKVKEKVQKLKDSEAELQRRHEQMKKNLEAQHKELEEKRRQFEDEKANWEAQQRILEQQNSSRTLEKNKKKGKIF
# T5: SEPT9_i3-β10 and SEPT9_i3-β11 (wild-type SEPT9 isoform 3 fused to GFP strand β10 or β11) (human), Q9UHD8
# T5 chain: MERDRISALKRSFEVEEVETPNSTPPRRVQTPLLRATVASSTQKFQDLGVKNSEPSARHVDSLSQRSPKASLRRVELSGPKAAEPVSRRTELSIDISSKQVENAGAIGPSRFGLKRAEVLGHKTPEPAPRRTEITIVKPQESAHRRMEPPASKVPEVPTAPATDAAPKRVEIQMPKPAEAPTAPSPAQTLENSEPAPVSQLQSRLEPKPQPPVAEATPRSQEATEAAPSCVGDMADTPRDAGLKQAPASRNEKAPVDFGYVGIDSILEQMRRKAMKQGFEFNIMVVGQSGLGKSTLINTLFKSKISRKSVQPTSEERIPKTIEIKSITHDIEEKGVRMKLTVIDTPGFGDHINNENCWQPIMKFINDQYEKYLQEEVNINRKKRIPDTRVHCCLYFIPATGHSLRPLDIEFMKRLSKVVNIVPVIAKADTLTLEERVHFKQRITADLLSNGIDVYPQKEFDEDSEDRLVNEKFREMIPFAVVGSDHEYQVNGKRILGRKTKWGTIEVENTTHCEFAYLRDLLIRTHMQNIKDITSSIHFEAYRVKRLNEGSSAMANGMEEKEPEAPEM
# Assays:
# [1] = molecular target: T1, SEPT7 (endogenous, U2OS) (human (endogenous in U2OS)); assay: native gel or EMSA
# [2] = molecular target: T2, msfGFP-SEPT7Gmut1 (SEPT7 W269A, H279D) (human); assay: native gel or EMSA
# [3] = molecular target: T3, msfGFP-SEPT7Gmut2 (SEPT7 H279D) (human); assay: native gel or EMSA
# [4] = molecular target: T4, recombinant human septin hexamers with wild-type SEPT2-msfGFP (SEPT2-SEPT6-SEPT7-SEPT7-SEPT6-SEPT2) (human); assay: fluorescence microscopy of reconstituted septin filaments
# [5] = molecular target: T5, SEPT9_i3-β10 and SEPT9_i3-β11 …; assay: split reporter; conditions: remark: other sources report otherwise
binder,measurement,setting,value
"SEPT9 (endogenous, U2OS) (protein, UniProt Q9UHD8 1-586) MKKSYSGGTRTSSGRLRRLGDSSGPALKRSFEVEEVETPNSTPPRRVQTPLLRATVASSTQKFQDLGVKNSEPSARHVDSLSQRSPKASLRRVELSGPKAAEPVSRRTELSIDISSKQVENAGAIGPSRFGLKRAEVLGHKTPEPAPRRTEITIVKPQESAHRRMEPPASKVPEVPTAPATDAAPKRVEIQMPKPAEAPTAPSPAQTLENSEPAPVSQLQSRLEPKPQPPVAEATPRSQEATEAAPSCVGDMADTPRDAGLKQAPASRNEKAPVDFGYVGIDSILEQMRRKAMKQGFEFNIMVVGQSGLGKSTLINTLFKSKISRKSVQPTSEERIPKTIEIKSITHDIEEKGVRMKLTVIDTPGFGDHINNENCWQPIMKFINDQYEKYLQEEVNINRKKRIPDTRVHCCLYFIPATGHSLRPLDIEFMKRLSKVVNIVPVIAKADTLTLEERVHFKQRITADLLSNGIDVYPQKEFDEDSEDRLVNEKFREMIPFAVVGSDHEYQVNGKRILGRKTKWGTIEVENTTHCEFAYLRDLLIRTHMQNIKDITSSIHFEAYRVKRLNEGSSAMANGMEEKEPEAPEM",binding,[1],binds
same,binding,[2],no binding
same,binding,[3],binds
"recombinant human septin hexamers with wild-type SEPT2-msfGFP (SEPT2-SEPT6-SEPT7-SEPT7-SEPT6-SEPT2) (complex, UniProt Q15019;Q14141;Q16181) chain 1: MSKQQPTQFINPETPGYVGFANLPNQVHRKSVKKGFEFTLMVVGESGLGKSTLINSLFLTDLYPERVIPGAAEKIERTVQIEASTVEIEERGVKLRLTVVDTPGYGDAINCRDCFKTIISYIDEQFERYLHDESGLNRRHIIDNRVHCCFYFISPFGHGLKPLDVAFMKAIHNKVNIVPVIAKADTLTLKERERLKKRILDEIEEHNIKIYHLPDAESDEDEDFKEQTRLLKASIPFSVVGSNQLIEAKGKKVRGRLYPWGVVEVENPEHNDFLKLRTMLITHMQDLQEVTQDLHYENFRSERLKRGGRKVENEDMNKDQILLEKEAELRRMQEMIARMQAQMQMQMQGGDGDGGALGHHV chain 2: MAATDIARQVGEGCRTVPLAGHVGFDSLPDQLVNKSVSQGFCFNILCVGETGLGKSTLMDTLFNTKFEGEPATHTQPGVQLQSNTYDLQESNVRLKLTIVSTVGFGDQINKEDSYKPIVEFIDAQFEAYLQEELKIRRVLHTYHDSRIHVCLYFIAPTGHSLKSLDLVTMKKLDSKVNIIPIIAKADAISKSELTKFKIKITSELVSNGVQIYQFPTDDESVAEINGTMNAHLPFAVIGSTEELKIGNKMMRARQYPWGTVQVENEAHCDFVKLREMLIRVNMEDLREQTHTRHYELYRRCKLEEMGFKDTDPDSKPFSLQETYEAKRNEFLGELQKKEEEMRQMFVQRVKEKEAELKEAEKELHEKFDRLKKLHQDEKKKLEDKKKSLDDEVNAFKQRKTAAELLQSQGSQAGGSQTLKRDKEKKNNPWLCTE chain 3: MSVSARSAAAEERSVNSSTMVAQQKNLEGYVGFANLPNQVYRKSVKRGFEFTLMVVGESGLGKSTLINSLFLTDLYSPEYPGPSHRIKKTVQVEQSKVLIKEGGVQLLLTIVDTPGFGDAVDNSNCWQPVIDYIDSKFEDYLNAESRVNRRQMPDNRVQCCLYFIAPSGHGLKPLDIEFMKRLHEKVNIIPLIAKADTLTPEECQQFKKQIMKEIQEHKIKIYEFPETDDEEENKLVKKIKDRLPLAVVGSNTIIEVNGKRVRGRQYPWGVAEVENGEHCDFTILRNMLIRTHMQDLKDVTNNVHYENYRSRKLAAVTYNGVDNNKNKGQLTKSPLAQMEEERREHVAKMKKMEMEMEQVFEMKVKEKVQKLKDSEAELQRRHEQMKKNLEAQHKELEEKRRQFEDEKANWEAQQRILEQQNSSRTLEKNKKKGKIF",binding,[4],binds
"SEPT9_i3-β10 and SEPT9_i3-β11 (wild-type SEPT9 isoform 3 fused to GFP strand β10 or β11), Q9UHD8-2 1-568 (protein) MERDRISALKRSFEVEEVETPNSTPPRRVQTPLLRATVASSTQKFQDLGVKNSEPSARHVDSLSQRSPKASLRRVELSGPKAAEPVSRRTELSIDISSKQVENAGAIGPSRFGLKRAEVLGHKTPEPAPRRTEITIVKPQESAHRRMEPPASKVPEVPTAPATDAAPKRVEIQMPKPAEAPTAPSPAQTLENSEPAPVSQLQSRLEPKPQPPVAEATPRSQEATEAAPSCVGDMADTPRDAGLKQAPASRNEKAPVDFGYVGIDSILEQMRRKAMKQGFEFNIMVVGQSGLGKSTLINTLFKSKISRKSVQPTSEERIPKTIEIKSITHDIEEKGVRMKLTVIDTPGFGDHINNENCWQPIMKFINDQYEKYLQEEVNINRKKRIPDTRVHCCLYFIPATGHSLRPLDIEFMKRLSKVVNIVPVIAKADTLTLEERVHFKQRITADLLSNGIDVYPQKEFDEDSEDRLVNEKFREMIPFAVVGSDHEYQVNGKRILGRKTKWGTIEVENTTHCEFAYLRDLLIRTHMQNIKDITSSIHFEAYRVKRLNEGSSAMANGMEEKEPEAPEM",binding,[5],binds

# Source: paper doi:10.1101/2022.02.23.481653
